From PubChem BioAssay AID652054 (National Center for Advancing Translational Sciences (NCATS), 2013)
Among all 360,000 compounds or so, about 9,100 (2.5%) were called active. The inconclusive results got no clear call from the source; some entries with a clear call stand among them for comparison. No stated cut-off is given here; in the data, active means max response below about -50%; inconclusive means no clear call, values can overlap the other calls; inactive means above that.

Amino acid sequences for entries named in this document (tags omitted).
UniProt P35462, whole entry, looked up: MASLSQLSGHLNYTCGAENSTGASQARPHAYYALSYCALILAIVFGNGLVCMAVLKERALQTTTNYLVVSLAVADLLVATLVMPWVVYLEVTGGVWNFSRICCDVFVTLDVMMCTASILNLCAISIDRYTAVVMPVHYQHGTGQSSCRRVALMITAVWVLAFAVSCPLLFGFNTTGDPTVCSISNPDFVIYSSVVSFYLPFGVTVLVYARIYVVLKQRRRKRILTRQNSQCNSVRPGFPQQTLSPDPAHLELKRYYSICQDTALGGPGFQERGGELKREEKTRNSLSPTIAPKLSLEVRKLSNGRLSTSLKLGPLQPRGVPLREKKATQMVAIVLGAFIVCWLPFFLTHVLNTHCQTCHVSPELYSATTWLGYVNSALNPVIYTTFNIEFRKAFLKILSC

Each molecule was assayed against D(3) dopamine receptor (Homo sapiens) (UniProt P35462) (assay: qHTS of D3 Dopamine Receptor Antagonist: qHTS). Conditions: D3R cells, DiscoveRx beta-arrestin luminescence, antagonist mode; hits give low values.
Summary of the method: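 Cells plated overnight at 1500 cells/well, then exposed to library compounds with dopamine controls for 90 minutes at 37 degrees C. DiscoveRx reagent added for 30–60 minutes at room temperature; luminescence read, quantitative HTS format.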
On the % scale 0 is the no-effect control and ±100 the full control effect.

Row | Structure (SMILES) | max response, negative = inhibition
1 | Cc1ccc(C)c(-n2cc(CNCCc3cnccn3)c(-c3ccccc3)n2)c1 | inactive: 1.91%
2 | COc1ccc(Cc2c(O)nc(SCC(=O)NC(C)(C)C)[nH]c2=O)cc1 | inactive: 19.1%
3 | O=C(O)c1cocc1C(=O)O | inconclusive: -31%
4 | CN(c1ccccc1)S(=O)(=O)c1ccc(Cl)c(C(=O)NCc2ccccc2CN2CCCC2)c1 | inactive: -24.5%
5 | COc1cc2c(cc1OC)C(c1ccc(C)cc1)NC(=O)C2 (centres undefined) | inactive: -24.3%
6 | CCCCCC/C=N/Nc1nnc(Cc2ccccc2)c(=O)[nH]1 | inconclusive: -33.1%
7 | O=C(c1cc(S(=O)(=O)N2CCOCC2)ccc1F)N(CCc1ccccc1)Cc1ccccc1 | active: -92.5%
8 | COc1cnc(-c2ccccn2)nc1Oc1ccc(C(C)(C)C)cc1 | active: -52.8%
9 | O=C1/C(=C/c2ccc(O)cc2)SC(=S)N1Cc1cccnc1 | inactive: -16.8%
10 | COc1cccc(-c2cc(=O)c3cc(NC(=O)c4ccc(Cl)cc4)ccc3[nH]2)c1 | inconclusive: -42.7%
11 | COc1ccccc1-n1cc(CN2CCCC(CO)(Cc3cccc(Cl)c3)C2)cn1 (centres undefined) | inconclusive: -43.3%
12 | C=C(CCO)C1=CCN(S(=O)(=O)C(C)(C)C)[C@H]1CCO | inconclusive: -30.9%
13 | O=C1Nc2c(Br)cc(Br)cc2C1(O)N1CCOCC1 (centres undefined) | inconclusive: -32.1%
14 | CN(C)CCCN(C(=O)CCS(=O)(=O)c1ccccc1)c1nc2cc3c(cc2s1)OCO3 | inconclusive: -32.8%
15 | O=c1c(-c2n[nH]c(=S)n2-c2ccccc2)cccn1Cc1cccc(Cl)c1 | inconclusive: -40%
16 | CCN(CC)Cc1nc2c(c(=O)[nH]1)C1(CCCC1)Cc1ccccc1-2 | inconclusive: -47.7%
17 | O=C(NCc1ccccc1)C1CCN(C(=O)Cc2ccccc2)CC1 | inconclusive: -30%
18 | COC1=CC(=O)C(O)=C(CCCCCCC/C=C/CCCCCCCC2=C(O)C(=O)C=C(OC)C2=O)C1=O | inconclusive: -43.2%
19 | O=c1c2[nH]c3ccccc3c2ncn1Cc1ccccn1 | inactive: -8.71%
20 | Cc1cc(C)n2nc(SCC(=O)Nc3ccccc3)nc2n1 | inactive: 13.6%
21 | COc1ccc(CN2CCC(n3nccc3NC(=O)CCc3ccccc3)CC2)c(C)c1C | inconclusive: -40.9%
22 | CCOC(=O)c1c(-c2ccccc2)csc1NC(=O)/C(C#N)=C/c1ccc(OC)c(OC)c1 | inactive: 0%
23 | CCOC(=O)[C@]12CCC=C1N(Cc1ccccc1)C(=O)[C@H](CC(=O)NCc1ccccc1)C2 | inconclusive: -44.3%
24 | COc1cc(CN2CCCC(C)C2)cc([N+](=O)[O-])c1O (centres undefined) | inconclusive: -45.7%

Part of the list above, with tabs.
Row	Structure (SMILES)	max response, negative = inhibition
7	O=C(c1cc(S(=O)(=O)N2CCOCC2)ccc1F)N(CCc1ccccc1)Cc1ccccc1	active: -92.5%
10	COc1cccc(-c2cc(=O)c3cc(NC(=O)c4ccc(Cl)cc4)ccc3[nH]2)c1	inconclusive: -42.7%
